Experimental data as given in PubChem BioAssay AID1671190 (National Center for Advancing Translational Sciences (NCATS), 2021).
Among all 580,000 compounds or so, about 6,100 (1.1%) were called active. The inconclusive results got no clear call from the source; some entries with a clear call stand among them for comparison. Calls follow the shape of the dose curve; as a rule, active = well fitted inhibition curve with a large enough effect; inconclusive = small, poorly fitted or top-dose-only effect, or another doubt; inactive = no such curve, though single readings can be large or run the other way. Potencies beside an inconclusive call are fits to weak or partial responses and may not hold up.

Sequences of proteins named here, by UniProt entry; tags and fusion partners are left off. A change or cut given only in a name is not applied to a line headed by its entry.
UniProt P18054: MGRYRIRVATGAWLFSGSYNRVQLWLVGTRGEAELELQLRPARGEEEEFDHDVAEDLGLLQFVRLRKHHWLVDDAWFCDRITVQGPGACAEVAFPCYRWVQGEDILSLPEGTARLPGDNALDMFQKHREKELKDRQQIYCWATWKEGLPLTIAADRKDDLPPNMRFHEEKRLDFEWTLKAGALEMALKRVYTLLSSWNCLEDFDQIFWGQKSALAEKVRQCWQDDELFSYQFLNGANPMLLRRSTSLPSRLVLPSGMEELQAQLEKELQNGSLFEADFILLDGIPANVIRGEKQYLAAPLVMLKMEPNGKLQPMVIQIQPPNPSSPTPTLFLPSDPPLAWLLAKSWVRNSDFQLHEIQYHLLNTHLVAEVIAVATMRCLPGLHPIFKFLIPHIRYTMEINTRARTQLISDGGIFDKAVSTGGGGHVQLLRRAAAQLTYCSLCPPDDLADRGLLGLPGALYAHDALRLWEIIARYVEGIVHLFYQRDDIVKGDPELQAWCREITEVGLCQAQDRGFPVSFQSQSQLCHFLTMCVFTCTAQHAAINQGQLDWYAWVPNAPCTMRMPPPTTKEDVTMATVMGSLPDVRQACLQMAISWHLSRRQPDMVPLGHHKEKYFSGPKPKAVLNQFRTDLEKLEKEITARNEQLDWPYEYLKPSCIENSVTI

biological target: Polyunsaturated fatty acid lipoxygenase ALOX12 (Homo sapiens) (UniProt P18054); assay: Primary qHTS assay for inhibitors of human arachidonate 12S-lipoxygenase (ALOX12): Round 2; conditions: purified 12hLO, xylenol orange hydroperoxide absorbance; activity change, negative = inhibition: at 108 µM (top of the series) unless noted
Outline: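 Purified human 12hLO at 150 nM in 25 mM Hepes, 0.01% Triton X-100, pH 7.0, preincubated 15 min at room temperature with compound. Reaction started with 40 uM arachidonic acid, 30 min at room temperature. Hydroperoxide measured by Fe-xylenol orange, 573/405 nm absorbance ratio.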
% is scaled to controls: 0 for no effect and ±100 for the full control effect; potency is read from the fitted curve at half-maximal effect.

SMILES | Potency | activity change, negative = inhibition
CC(C)(C)NC(=S)NC(=O)C12CC3CCC(CC(C3)C1)C2 | active: 22.4 µM | –
Cc1ccc(S(=O)(=O)N(C)C(C)CCc2ccco2)cc1 (configuration not stated) | inconclusive: 39.8 µM [inhibitor, partial curve, poor fit] | –
c1ccc(-c2nnnn2-c2ccccc2)cc1 | inactive | –
Cc1cccc(/C=N/Nc2cc(N3CCOCC3)nc(N3CCOCC3)n2)c1 | inactive | –
CC(C)S(=O)(=O)N1CC(n2cc(C(=O)NCc3ccccc3)nn2)C1 | inactive | –
O=[N+]([O-])c1ccc(CSc2nnc(SCc3ccccc3)s2)cc1 | inconclusive: 44.7 µM [inhibitor, partial curve, poor fit] | –
CC1=C[C@@H](CNCc2ccc(C#N)cc2)[C@H](C(C)C)C[C@H]1Cc1nnc(C(C)(C)C)o1 | inconclusive: 35.5 µM [inhibitor, full curve, poor fit] | –
O=C1CC(C(=O)Nc2cccc(F)c2)n2ncnc2N1 (configuration not stated) | inactive | –
Nc1ccc2ccccc2c1[N+](=O)[O-] | inconclusive: 100 µM [inhibitor, partial curve, poor fit] | –
CC1(CCc2ccccc2)NC(=S)N(c2ccc(Cl)cc2)N1 (configuration not stated) | inconclusive: 1.12 µM [inhibitor, full curve, poor fit] | –
COc1ccc(N2C(=S)NC3CS(=O)(=O)CC32)cc1 (configuration not stated) | inconclusive: 112 µM [inhibitor, single point] | –
Clc1ccc(CON/C=N/c2ncnc3sccc23)cc1 | inconclusive: 126 µM [inhibitor, single point] | –
CCOc1ccc(C(=O)C(C)OC(=O)c2ccc(C(N)=O)cc2)cc1 (configuration not stated) | inactive | –
CCOC(=O)/C(=N/Nc1ccc(OC)cc1)N1CCCc2ccccc21 | inconclusive: 31.6 µM [inhibitor, single point] | –
CCOC(=O)COc1ccc2c(c1)O/C(=C\c1sccc1C)C2=O | inconclusive: 1.78 µM [inhibitor, full curve, poor fit] | –
O=[N+]([O-])c1ccc2[nH]c(O)c(N=NC(=S)Nc3cccnc3)c2c1 | inconclusive: 50.1 µM [inhibitor, partial curve, poor fit] | –
O=C(CCNC(=O)c1ccc(Cl)cc1)Nc1cccc(S(=O)(=O)N2CCCCCC2)c1 | inconclusive: 89.1 µM [inhibitor, single point] | –
COc1cc(Nc2nc(SCc3cccc(Cl)c3)nc3ccccc23)cc(OC)c1 | inconclusive: 89.1 µM [inhibitor, partial curve, poor fit] | –
CCC(CC)C(=O)OCC(=O)NC12CC3CC(CC(C3)C1)C2 | inactive | –
CCN(CC)CCCn1c(C)c(C)c2c1ncn1nc(-c3cccs3)nc21 | inactive | –
CC(C(=O)Nc1ccc(Br)cc1)N(C)CC(=O)NCc1ccco1 (configuration not stated) | inconclusive: 89.1 µM [inhibitor, single point] | –
C[C@H]1[C@@H](NS(=O)(=O)c2ccc([N+](=O)[O-])cc2[N+](=O)[O-])CC[C@@]23CCCN2C(=O)CCC[C@@H]13 | inconclusive: 44.7 µM [inhibitor, partial curve, poor fit] | –
C=CCOc1ccc2c(C)c(CCC(C)C)c(=O)oc2c1 | inconclusive: 112 µM [inhibitor, partial curve, poor fit] | –

SMILES | Potency | activity change, negative = inhibition
CC(C)(C)C(=O)N1CCN(c2ncnc3scc(-c4ccccc4)c23)CC1 | inactive | –
Fc1ccc(Nc2c3c(nc4nncn24)CCC3)cc1 | inactive | –
COC(=O)c1ccc(NC(=O)Nc2ccc([N+](=O)[O-])cc2)cc1 | inconclusive: 0.631 µM [inhibitor, full curve, poor fit] | –
O=C(Cn1nnc2ccccc2c1=O)NCc1ccco1 | inconclusive: 3.16 µM [inhibitor, partial curve, poor fit] | –
O=C(N/N=C/c1ccc(Cl)cc1)c1ccc2c(c1)OCO2 | inconclusive: 39.8 µM [inhibitor, partial curve, poor fit] | –
O=C(Nc1nnc(-c2ccc3c(c2)CCCC3)o1)c1ccc(Cl)cc1Cl | inactive | –
COc1cccc2c1[C@@H]1CN(CCCCn3c(=O)[nH]c4c(sc5ncc(-c6ccccc6)nc54)c3=O)C[C@@H]1CO2 | inconclusive: 79.4 µM [inhibitor, partial curve, poor fit] | –
CC1=NN(C(=O)c2ccc(Br)cc2)C(O)(C(F)(F)OC(F)(F)F)C1 (configuration not stated) | inactive | –
N#Cc1ccc(CN2CCCC3(CCN(C(=O)c4cc(C(F)(F)F)cc(C(F)(F)F)c4)CC3)C2)cc1 | inconclusive: 31.6 µM [inhibitor, single point] | –
CCn1nc(C(=O)Nc2ccc3nc(SC)sc3c2)c2ccccc2c1=O | inconclusive: 100 µM [inhibitor, partial curve, poor fit] | –
Cc1ccc2nc(N/C(=N/S(=O)(=O)c3cccs3)c3ccccc3Cl)sc2c1 | inconclusive: 44.7 µM [inhibitor, partial curve, poor fit] | –
Cc1[nH]c2ccccc2c1C(O)CN1CCN(c2cccc(C(F)(F)F)c2)CC1 (configuration not stated) | inconclusive: 44.7 µM [inhibitor, partial curve, poor fit] | –
O=C(N/N=C/c1ccncc1)c1cccc(NC(=O)c2ccc(Cl)cc2)c1 | inactive | –
Cc1cc(S(=O)(=O)Nc2ccc(Cl)c(C(F)(F)F)c2)sc1C(=O)O | inconclusive: 28.2 µM [inhibitor, partial curve, poor fit] | –
O=C(CCc1nc(-c2ccccc2Cl)no1)NC1CCCC1 | inactive | –
C/C(=N\Nc1cccc2cccnc12)c1ccccn1 | inactive | –
O=C(CCc1ncc(-c2ccccc2)o1)N1CCc2ccccc21 | inconclusive: 79.4 µM [inhibitor, single point] | –
CC(Nc1ccc(-c2ccccc2)cc1)C(=O)Nc1ccc(Cl)cn1 (configuration not stated) | inactive | –
O=C(NC1CCCCC1)C1CCCc2ccccc21 (configuration not stated) | inconclusive: 50.1 µM [inhibitor, partial curve, poor fit] | –
CCN(CCc1ccccc1)c1ccc2c(c1)C1CC2CCN1C(=O)OCc1ccccc1 (configuration not stated) | inactive | –
C/C(CCc1oc2ccc(Cl)cc2c1-c1ccc(C)o1)=N\O | inconclusive: 35.5 µM [inhibitor, partial curve, poor fit] | –
CC1(C(=O)NS(=O)(=O)c2cccc(OC(F)F)c2)CCN1C(=O)C/C=C/c1ccccc1 (configuration not stated) | inconclusive: 31.6 µM [inhibitor, partial curve, poor fit] | –
O=C(CCNS(=O)(=O)c1cccc2nonc12)NC1CCCCC1 | inconclusive: 50.1 µM [inhibitor, partial curve, poor fit] | –

SMILES | Potency | activity change, negative = inhibition
COc1cccc(/C=N/c2oc(-c3ccccc3)cc2C#N)c1O | inconclusive: 5.01 µM [inhibitor, full curve, poor fit] | –
Cc1[nH]n(-c2ccc([N+](=O)[O-])cc2)c(=O)c1C=NCCc1c(C)[nH]c2ccccc12 | inactive | –
O=[N+]([O-])c1ccc(Oc2cccc3cccnc23)c2ccncc12 | inconclusive: 56.2 µM [inhibitor, partial curve, poor fit] | –
COC(=O)c1c(C)[nH]c(C(=O)C(C)Nc2ccc(OC)cc2OC)c1C (configuration not stated) | inactive | –
O=C(NCc1ccccc1F)C1CCN(Cc2cc3ccccc3n2Cc2cccc(Cl)c2)CC1 | inconclusive: 89.1 µM [inhibitor, partial curve, poor fit] | –
O=C1NCc2ccccc2CC12CCCN2Cc1ccc(F)cc1 (configuration not stated) | – | inactive: 2.96% [at 6.33 µM]
CC(C)c1nc2c(c(-c3ccc(O)cc3)n1)CCN(Cc1ccccc1)CC2 | inactive | –
O=C(O)c1cc(-c2cccc(Cl)c2)nc2ccccc12 | inconclusive: 56.2 µM [inhibitor, partial curve, poor fit] | –
Cc1cccn2c(=O)c(/C=C(\C#N)c3nc4ccccc4s3)c(Oc3ccc(Br)cc3)nc12 | inconclusive: 112 µM [inhibitor, single point] | –
Cc1ccccc1OCC(=O)Nc1cc(C(F)(F)F)ccc1N1CCOCC1 | inactive | –
CC(=O)c1cc(-c2ccc(F)cc2)n(CC(=O)NC(C)c2ccccc2)c1C (configuration not stated) | inconclusive: 178 µM [inhibitor, partial curve, poor fit] | –
CC1CCN(c2ccccc2NC(=O)c2cc3ccccc3o2)CC1 | inactive | –
Cc1ccccc1NC(=O)Nc1ccc2nc(N3CCN(C)CC3)cc(C)c2c1 | inconclusive: 89.1 µM [inhibitor, partial curve, poor fit] | –
Cc1ccc(S(=O)(=O)Nc2ccc3nc(-c4ccc(F)cc4)oc3c2)cc1 | inconclusive: 56.2 µM [inhibitor, partial curve, poor fit] | –
Cc1nn(-c2ccccc2)c(C)c1[C@@H]1C=C[C@@H](NC(=O)c2ccco2)C1 | inconclusive: 22.4 µM [inhibitor, full curve, poor fit] | –
Cc1c(CCC(=O)NCc2ccccc2)c(=O)oc2cc(O)ccc12 | inactive | –
O=C(CN(C(=O)c1ccccc1)C(=O)c1ccccc1)OCc1ccccc1 | inconclusive: 112 µM [inhibitor, single point] | –
CC(Sc1nc(N)cc(=O)[nH]1)C(=O)Nc1ccc(N2CCOCC2)cc1 (configuration not stated) | inconclusive: 56.2 µM [inhibitor, partial curve, poor fit] | –
O=C(CN1CCc2ccccc21)NC1CCCc2ccccc21 (configuration not stated) | inconclusive: 50.1 µM [inhibitor, partial curve, poor fit] | –
Cc1ccc(C)c(S(=O)(=O)Nc2nc3ccccc3nc2NCc2ccc3c(c2)OCO3)c1 | inactive | –

Random excerpt: four records from the list.
SMILES | Potency | activity change, negative = inhibition
O=C(CCNS(=O)(=O)c1cccc2nonc12)NC1CCCCC1 | inconclusive: 50.1 µM [inhibitor, partial curve, poor fit] | –
O=[N+]([O-])c1ccc(CSc2nnc(SCc3ccccc3)s2)cc1 | inconclusive: 44.7 µM [inhibitor, partial curve, poor fit] | –
O=C(O)c1cc(-c2cccc(Cl)c2)nc2ccccc12 | inconclusive: 56.2 µM [inhibitor, partial curve, poor fit] | –
Cc1[nH]c2ccccc2c1C(O)CN1CCN(c2cccc(C(F)(F)F)c2)CC1 (configuration not stated) | inconclusive: 44.7 µM [inhibitor, partial curve, poor fit] | –
